Laboratory results as given in patent publication US8138211B2, “Isothiazolyloxyphenylamidines and their use as fungicides” (Bayer Cropscience AG, priority 2009, dated 2012).
Some results were stated once for a whole list of compounds, not compound by compound. At least one compound was matched to its structure with a doubt left.

Key:
Type in all cases: in vivo
Uromyces appendiculatus = assay: Uromyces test (bean)/protective; conditions: active compound concentration of 10 ppm, protective, evaluation 10 days after inoculation
Puccinia recondita = assay: Puccinia test (wheat)/protective; conditions: active compound concentration of 500 ppm, protective, evaluation 7-9 days after inoculation
Leptosphaeria nodorum = Leptosphaeria nodorum test (wheat)/protective; conditions: active compound concentration of 500 ppm, protective, evaluation 8 days after inoculation
Sphaerotheca fuliginea = assay: Sphaerotheca test (cucumber)/protective; conditions: active compound concentration of 500 ppm, protective, evaluation 7 days after inoculation
Pyrenophora teres = Pyrenophora teres test (barley)/protective; conditions: active compound concentration of 500 ppm, protective, evaluation 8 days after inoculation
Septoria tritici = Septoria tritici test (wheat)/protective; conditions: active compound concentration of 500 ppm, protective, evaluation 21 days after inoculation
Botrytis cinerea = assay: Botrytis test (bean)/protective; conditions: active compound concentration of 250 ppm, protective, evaluation two days after inoculation

Measured: efficacy

CCCN(C)/C=N/c1cc(C)c(Oc2snc(C(C)(C)C)c2C#N)cc1C [No. 4, N′-{4-[(3-tert-butyl-4-cyano-1,2-thiazol-5-yl)oxy]-2,5-dimethylphenyl}-N-methyl-N-propylimidoformamide]
not listed: Botrytis cinerea
≥ 70%: all other assays above

CCN(C)C=Nc1cc(C)c(Oc2cc(C(C)(C)C)ns2)cc1C [compound 74]
not listed: Botrytis cinerea
≥ 70%: all other assays above

CCN(C)C=Nc1cc(C)c(Oc2snc(C)c2Cl)cc1Cl [compound 87]
≥ 70%: Leptosphaeria nodorum | Pyrenophora teres | Septoria tritici

CCN(C)C=Nc1cc(C)c(Oc2snc(CC(C)(C)C)c2C#N)cc1Cl [compound 119]
not listed: Uromyces appendiculatus | Botrytis cinerea
≥ 70%: all other assays above

CCOC(=O)c1c(C)nsc1Oc1cc(C)c(/N=C/N(C)CC)cc1C [compound 145]
≥ 70%: Puccinia recondita | Leptosphaeria nodorum | Sphaerotheca fuliginea

CCN(C)C=Nc1cc(C)c(Oc2snc(C)c2C)cc1C [compound 163]
not listed: Botrytis cinerea
≥ 70%: all other assays above

CCN(C)C=Nc1cc(Br)c(Oc2snc(C(C)(C)C)c2C#N)cc1C [compound 169]
≥ 70%: Puccinia recondita | Leptosphaeria nodorum | Sphaerotheca fuliginea

CCN(C)C=Nc1cc(C)c(Oc2snc(C(C)(CC)CC)c2C#N)cc1Cl [compound 193]
≥ 70%: Leptosphaeria nodorum | Pyrenophora teres | Septoria tritici

CCN(C)C=Nc1cc(C)c(Oc2snc(Cl)c2Cl)cc1C [compound 202]
≥ 70%: Leptosphaeria nodorum | Pyrenophora teres | Septoria tritici

CCN(C)C=Nc1cc(C)c(Oc2snc(-c3ccc(Cl)cc3Cl)c2C#N)cc1C [compound 210]
not listed: Leptosphaeria nodorum
≥ 70%: all other assays above

Cc1cc(Oc2snc(C(C)(C)F)c2C#N)c(C)cc1N=CN(C)C [compound 215]
not listed: Leptosphaeria nodorum
≥ 70%: all other assays above

CCN(C)C=Nc1cc(C)c(Oc2snc(C(C)(C)F)c2C#N)cc1C [compound 216]
not listed: Leptosphaeria nodorum
≥ 70%: all other assays above

Cc1cc(Oc2snc(C(C)C)c2C#N)c(C)cc1N=CN(C)C [compound 229]
not listed: Leptosphaeria nodorum
≥ 70%: all other assays above

Cc1cc(Oc2snc(C(C)(C)F)c2C#N)c(C)cc1N=CN(C)C(C)C [compound 233]
not listed: Leptosphaeria nodorum
≥ 70%: all other assays above

CCN(C)C=Nc1cc(Cl)c(Oc2snc(C(C)C)c2C#N)cc1C [compound 236]
not listed: Leptosphaeria nodorum
≥ 70%: all other assays above

Cc1cc(Oc2snc(C(C)C)c2C#N)c(C)cc1N=CN(C)C(C)C [compound 237]
not listed: Leptosphaeria nodorum
≥ 70%: all other assays above
